# The list shows a part of the results.
# B1: PX9961M-bvu-482-23-482 (Bacteroides vulgatus) (protein)
# chain: WLDLAPSTQVDTETSINVLSDIEFTLNGIYSTMQSSDAYSGRLVYYGDVTGDDMQAVSSTKRTGNYYRFNFTKDNGPSSHWSYLYSIIQNCNLILMNVDKLSIDEDETEYKNDLKGQALAIRGMALFDLTRIFGYPYLKDNGASLGVPIVKELSTIDSKPARNTVAECYTEIISDLKNSTELLSGDFNKGKVNRWAAMTLLSRVYLYKGEYNEALTMAENAIKGAEKEGYALWTNEEYPTAWGNDASASNPGEILFEIVNLTTDSPGKESMGYLNSYNGYDDMCITCSFYQLLKKDPKDVRLKILSFDKKYYAYVNKYQPQQGENITDANIPLIRLSEAYLNAAEAAVQTGDNAKAVKYLNSIVQRANPENSVEGKTLTLENVLDERRKELVAEGHRMYDVIRNGMTVKRIDVKDSDINKTKHNTAYMEYDWNFHKILLPIPKKEMDANPNMKQNPGYVD
# Tests used:
# Test in all cases: glycan array binding signal (z-score within array); higher = stronger binding
# Conditions in all cases: glycan notation: IUPAC condensed, linker removed
# [1] = biological target: Neu5Ac(a2-3)Gal(b1-3)[Fuc(a1-4)]GlcNAc
# In short: (§1)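 Negative Z-scores can be read as non-binding. The Z-score is calculated within each array and then averaged across arrays of one protein sequence at different concentrations or buffers and across linkers. Arrays, 3228 in all, were curated from the Consortium for Functional Glycomics database and kept only where the protein sequence was available.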
# [2] = biological target: Neu5Ac(a2-3)Gal(b1-3)[Fuc(a1-4)]GlcNAc(b1-3)Gal(b1-3)[Fuc(a1-4)]GlcNAc
# In short: as §1
# [3] = biological target: Neu5Ac(a2-3)Gal(b1-3)[Fuc(a1-4)]GlcNAc(b1-3)Gal(b1-4)[Fuc(a1-3)]GlcNAc
# In short: as §1
# [4] = biological target: Neu5Ac(a2-3)Gal(b1-3)[GlcNAc(b1-6)]GalNAc
# In short: as §1
# [5] = biological target: Neu5Ac(a2-3)Gal(b1-3)[Neu5Ac(a2-6)]GalNAc
# In short: as §1
# [6] = biological target: Neu5Ac(a2-3)Gal(b1-3)[Neu5Ac(a2-6)]GlcNAc(b1-3)[Fuc(a1-3)[Gal(b1-4)]GlcNAc(b1-6)]Gal(b1-4)Glc
# In short: as §1
# [7] = biological target: Neu5Ac(a2-3)Gal(b1-3)]Neu5Ac(a2-3)Gal(b1-4)]GlcNAc
# In short: as §1
# [8] = biological target: Neu5Ac(a2-3)Gal(b1-4)Glc
# In short: as §1
# [9] = biological target: Neu5Ac(a2-3)Gal(b1-4)GlcNAc
# In short: as §1
# [10] = biological target: Neu5Ac(a2-3)Gal(b1-4)GlcNAc(b1-2)Man
# In short: as §1
# [11] = biological target: Neu5Ac(a2-3)Gal(b1-4)GlcNAc(b1-2)Man(a1-3)[GlcNAc(b1-4)][Neu5Ac(a2-3)Gal(b1-4)GlcNAc(b1-2)Man(a1-6)]Man(b1-4)GlcNAc(b1-4)GlcNAc
# In short: as §1
# [12] = biological target: Neu5Ac(a2-3)Gal(b1-4)GlcNAc(b1-2)Man(a1-3)[Neu5Ac(a2-3)Gal(b1-4)GlcNAc(b1-2)Man(a1-6)]Man(b1-4)GlcNAc(b1-4)GlcNAc
# In short: as §1
# [13] = biological target: Neu5Ac(a2-3)Gal(b1-4)GlcNAc(b1-2)Man(a1-3)[Neu5Ac(a2-3)Gal(b1-4)GlcNAc(b1-2)Man(a1-6)]Man(b1-4)GlcNAc(b1-4)[Fuc(a1-6)]GlcNAc
# In short: as §1
# [14] = biological target: Neu5Ac(a2-3)Gal(b1-4)GlcNAc(b1-2)Man(a1-3)[Neu5Ac(a2-6)Gal(b1-4)GlcNAc(b1-2)Man(a1-6)]Man(b1-4)GlcNAc(b1-4)GlcNAc
# In short: as §1
# [15] = biological target: Neu5Ac(a2-3)Gal(b1-4)GlcNAc(b1-2)[Neu5Ac(a2-3)Gal(b1-4)GlcNAc(b1-4)]Man(a1-3)[GlcNAc(b1-4)][Neu5Ac(a2-3)Gal(b1-4)GlcNAc(b1-2)[Neu5Ac(a2-3)Gal(b1-4)GlcNAc(b1-6)]Man(a1-6)]Man(b1-4)GlcNAc(b1-4)GlcNAc
# In short: as §1
# [16] = biological target: Neu5Ac(a2-3)Gal(b1-4)GlcNAc(b1-2)[Neu5Ac(a2-3)Gal(b1-4)GlcNAc(b1-4)]Man(a1-3)[GlcNAc(b1-4)][Neu5Ac(a2-3)Gal(b1-4)GlcNAc(b1-4)Man(a1-6)]Man(b1-4)GlcNAc(b1-4)GlcNAc
# In short: as §1
# [17] = biological target: Neu5Ac(a2-3)Gal(b1-4)GlcNAc(b1-2)[Neu5Ac(a2-3)Gal(b1-4)GlcNAc(b1-6)]Man(a1-6)[Neu5Ac(a2-3)Gal(b1-4)GlcNAc(b1-2)Man(a1-3)]Man(b1-4)GlcNAc(b1-4)GlcNAc
# In short: as §1
# [18] = biological target: Neu5Ac(a2-3)Gal(b1-4)GlcNAc(b1-2)[Neu5Ac(a2-3)Gal(b1-4)GlcNAc(b1-6)]Man(a1-6)[Neu5Ac(a2-3)Gal(b1-4)GlcNAc(b1-2)Man(a1-3)][GlcNAc(b1-4)]Man(b1-4)GlcNAc(b1-4)GlcNAc
# In short: as §1
# [19] = biological target: Neu5Ac(a2-3)Gal(b1-4)GlcNAc(b1-3)Gal
# In short: as §1
# [20] = biological target: Neu5Ac(a2-3)Gal(b1-4)GlcNAc(b1-3)Gal(b1-3)GlcNAc
# In short: as §1
# [21] = biological target: Neu5Ac(a2-3)Gal(b1-4)GlcNAc(b1-3)Gal(b1-4)GlcNAc
# In short: as §1
# [22] = biological target: Neu5Ac(a2-3)Gal(b1-4)GlcNAc(b1-3)Gal(b1-4)GlcNAc(b1-2)Man(a1-3)[Neu5Ac(a2-3)Gal(b1-4)GlcNAc(b1-3)Gal(b1-4)GlcNAc(b1-2)Man(a1-6)]Man(b1-4)GlcNAc(b1-4)GlcNAc
# In short: as §1
# [23] = biological target: Neu5Ac(a2-3)Gal(b1-4)GlcNAc(b1-3)Gal(b1-4)GlcNAc(b1-3)Gal(b1-4)GlcNAc
# In short: as §1
# [24] = biological target: Neu5Ac(a2-3)Gal(b1-4)GlcNAc(b1-3)Gal(b1-4)GlcNAc(b1-3)Gal(b1-4)GlcNAc(b1-2)Man(a1-3)[Neu5Ac(a2-3)Gal(b1-4)GlcNAc(b1-3)Gal(b1-4)GlcNAc(b1-3)Gal(b1-4)GlcNAc(b1-2)Man(a1-6)]GalNAc
# In short: as §1
# [25] = biological target: Neu5Ac(a2-3)Gal(b1-4)GlcNAc(b1-3)Gal(b1-4)GlcNAc(b1-3)GalNAc
# In short: as §1
# [26] = biological target: Neu5Ac(a2-3)Gal(b1-4)GlcNAc(b1-3)Gal(b1-4)GlcNAc(b1-3)[Neu5Ac(a2-3)Gal(b1-4)GlcNAc(b1-3)Gal(b1-4)GlcNAc(b1-6)]GalNAc
# In short: as §1
# [27] = biological target: Neu5Ac(a2-3)Gal(b1-4)GlcNAc(b1-3)Gal(b1-4)GlcNAc(b1-6)[Gal(b1-3)]GalNAc
# In short: as §1
# [28] = biological target: Neu5Ac(a2-3)Gal(b1-4)GlcNAc(b1-3)Gal(b1-4)[Fuc(a1-3)]GlcNAc
# In short: as §1
# [29] = biological target: Neu5Ac(a2-3)Gal(b1-4)GlcNAc(b1-3)GalNAc
# In short: as §1
# [30] = biological target: Neu5Ac(a2-3)Gal(b1-4)GlcNAc(b1-3)[Neu5Ac(a2-3)Gal(b1-4)GlcNAc(b1-6)]GalNAc
# In short: as §1
binder,measurement,setting,value
B1,glycan array binding signal (z-score),[1],0.051
same,glycan array binding signal (z-score),[2],0.573
same,glycan array binding signal (z-score),[3],0.838
same,glycan array binding signal (z-score),[4],0.107
same,glycan array binding signal (z-score),[5],-0.425
same,glycan array binding signal (z-score),[6],-0.221
same,glycan array binding signal (z-score),[7],-0.084
same,glycan array binding signal (z-score),[8],-0.148
same,glycan array binding signal (z-score),[9],-0.183
same,glycan array binding signal (z-score),[10],-0.178
same,glycan array binding signal (z-score),[11],0.122
same,glycan array binding signal (z-score),[12],-0.544
same,glycan array binding signal (z-score),[13],0.819
same,glycan array binding signal (z-score),[14],1.21
same,glycan array binding signal (z-score),[15],0.556
same,glycan array binding signal (z-score),[16],1.11
same,glycan array binding signal (z-score),[17],0.782
same,glycan array binding signal (z-score),[18],-0.159
same,glycan array binding signal (z-score),[19],1.15
same,glycan array binding signal (z-score),[20],-0.396
same,glycan array binding signal (z-score),[21],-0.488
same,glycan array binding signal (z-score),[22],0.315
same,glycan array binding signal (z-score),[23],-0.18
same,glycan array binding signal (z-score),[24],0.086
same,glycan array binding signal (z-score),[25],-0.629
same,glycan array binding signal (z-score),[26],-0.161
same,glycan array binding signal (z-score),[27],-0.353
same,glycan array binding signal (z-score),[28],-0.699
same,glycan array binding signal (z-score),[29],0.638
same,glycan array binding signal (z-score),[30],-0.358

# Reformatted with bars between the fields: entries from further up
binder | measurement | setting | value
B1 | glycan array binding signal (z-score) | [17] | 0.782
same | glycan array binding signal (z-score) | [18] | -0.159
